Measured values taken from patent US20120231482A1, “METHOD, KIT OR DIAGNOSTIC FOR THE DETECTION OF REAGENTS WHICH INDUCE ALTERED CONTRACTILITY” (THE JOHNS HOPKINS UNIVERSITY, priority 2009, published 2012).
Results are given in words; binding and its absence hold for the method and conditions named. Some entries that bind do so weakly or less than the wild type.

Amino acid sequences for entries named in this document (tags omitted). Residues count along the entry.
UniProt P02563: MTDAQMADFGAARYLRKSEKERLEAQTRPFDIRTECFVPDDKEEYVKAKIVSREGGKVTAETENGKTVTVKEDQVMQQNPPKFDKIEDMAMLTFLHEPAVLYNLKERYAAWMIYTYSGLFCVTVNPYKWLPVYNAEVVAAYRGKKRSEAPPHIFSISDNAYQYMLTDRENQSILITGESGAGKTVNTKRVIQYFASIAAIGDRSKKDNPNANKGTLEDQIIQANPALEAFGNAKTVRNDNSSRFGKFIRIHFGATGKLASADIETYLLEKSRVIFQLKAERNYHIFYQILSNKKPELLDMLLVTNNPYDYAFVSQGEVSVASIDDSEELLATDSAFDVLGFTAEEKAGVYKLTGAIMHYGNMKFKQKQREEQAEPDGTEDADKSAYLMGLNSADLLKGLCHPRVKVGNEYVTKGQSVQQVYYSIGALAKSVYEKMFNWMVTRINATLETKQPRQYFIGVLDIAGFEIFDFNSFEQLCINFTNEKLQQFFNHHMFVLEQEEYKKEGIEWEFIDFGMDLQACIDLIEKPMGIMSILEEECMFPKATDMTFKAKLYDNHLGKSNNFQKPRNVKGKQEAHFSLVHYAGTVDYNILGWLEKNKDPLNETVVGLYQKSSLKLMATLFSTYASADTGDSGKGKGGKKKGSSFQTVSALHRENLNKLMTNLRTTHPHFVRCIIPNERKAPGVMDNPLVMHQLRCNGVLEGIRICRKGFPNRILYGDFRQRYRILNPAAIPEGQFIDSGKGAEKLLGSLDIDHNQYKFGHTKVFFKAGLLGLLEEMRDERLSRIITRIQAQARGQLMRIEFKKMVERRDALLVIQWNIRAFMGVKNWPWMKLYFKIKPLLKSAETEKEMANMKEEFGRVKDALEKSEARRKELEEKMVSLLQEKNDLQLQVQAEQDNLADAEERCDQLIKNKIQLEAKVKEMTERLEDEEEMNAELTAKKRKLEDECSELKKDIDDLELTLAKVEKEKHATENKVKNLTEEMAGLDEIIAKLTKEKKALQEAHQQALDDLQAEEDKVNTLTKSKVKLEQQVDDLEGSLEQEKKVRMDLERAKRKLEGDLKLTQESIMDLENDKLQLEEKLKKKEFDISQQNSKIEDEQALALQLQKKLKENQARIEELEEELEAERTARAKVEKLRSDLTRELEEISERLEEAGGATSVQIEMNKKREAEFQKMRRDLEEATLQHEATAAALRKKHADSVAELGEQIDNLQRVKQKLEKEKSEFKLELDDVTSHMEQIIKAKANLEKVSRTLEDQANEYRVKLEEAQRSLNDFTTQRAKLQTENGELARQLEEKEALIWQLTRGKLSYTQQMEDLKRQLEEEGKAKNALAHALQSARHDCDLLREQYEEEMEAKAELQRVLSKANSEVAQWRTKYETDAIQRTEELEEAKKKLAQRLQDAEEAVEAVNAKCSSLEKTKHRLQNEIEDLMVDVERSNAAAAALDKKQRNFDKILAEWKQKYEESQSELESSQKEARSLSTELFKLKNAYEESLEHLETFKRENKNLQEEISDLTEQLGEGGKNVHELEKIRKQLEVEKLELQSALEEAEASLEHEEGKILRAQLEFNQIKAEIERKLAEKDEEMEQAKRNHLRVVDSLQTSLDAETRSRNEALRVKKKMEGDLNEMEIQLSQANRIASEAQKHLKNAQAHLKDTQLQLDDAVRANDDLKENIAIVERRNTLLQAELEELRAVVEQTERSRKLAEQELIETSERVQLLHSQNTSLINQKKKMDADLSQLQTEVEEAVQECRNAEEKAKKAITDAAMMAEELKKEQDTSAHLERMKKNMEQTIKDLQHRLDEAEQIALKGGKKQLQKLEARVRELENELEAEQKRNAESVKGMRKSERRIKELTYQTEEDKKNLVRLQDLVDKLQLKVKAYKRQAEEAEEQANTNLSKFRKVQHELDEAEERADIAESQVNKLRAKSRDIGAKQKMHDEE
UniProt P16409, residues 2-200: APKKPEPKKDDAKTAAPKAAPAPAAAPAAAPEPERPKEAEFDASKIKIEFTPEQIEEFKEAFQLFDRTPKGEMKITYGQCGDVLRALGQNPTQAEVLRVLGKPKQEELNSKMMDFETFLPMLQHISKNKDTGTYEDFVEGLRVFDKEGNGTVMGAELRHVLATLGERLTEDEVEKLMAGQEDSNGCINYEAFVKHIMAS

Target: myosin heavy chain α, rat cardiac myofibrils (rat) (UniProt P02563)
Test: reducing/non-reducing 1D SDS-PAGE western blot of NCA or AS treated rat cardiac myofibrils

“myosin light chain 1, rat cardiac (from UniProt P16409 2-200)” was tested, and the binding was “binds”.
